Laboratory results reported in article PMC3555845.
No constants are given. Whether binding was seen depends on the method and setting. Binding seen in cells or lysates may run through a third protein. Some entries that bind do so weakly or less than the wild type.

Protein sequences, listed by entry. Tags and fused reporters are not part of them.
UniProt P08100: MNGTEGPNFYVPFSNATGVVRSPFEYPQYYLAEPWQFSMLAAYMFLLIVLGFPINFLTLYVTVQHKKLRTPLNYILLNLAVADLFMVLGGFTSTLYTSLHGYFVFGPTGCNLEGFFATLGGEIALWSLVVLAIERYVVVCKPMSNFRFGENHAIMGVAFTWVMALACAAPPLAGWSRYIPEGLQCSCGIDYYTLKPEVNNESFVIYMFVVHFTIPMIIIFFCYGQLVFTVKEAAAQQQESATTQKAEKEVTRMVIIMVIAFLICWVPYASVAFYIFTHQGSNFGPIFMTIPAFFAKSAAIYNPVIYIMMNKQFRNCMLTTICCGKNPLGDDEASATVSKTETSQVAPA

Molecular target: T1, USH1G protein SANS (scaffold protein containing ankyrin repeats and SAM domain) (UniProt Q495M9)
T1 sequence: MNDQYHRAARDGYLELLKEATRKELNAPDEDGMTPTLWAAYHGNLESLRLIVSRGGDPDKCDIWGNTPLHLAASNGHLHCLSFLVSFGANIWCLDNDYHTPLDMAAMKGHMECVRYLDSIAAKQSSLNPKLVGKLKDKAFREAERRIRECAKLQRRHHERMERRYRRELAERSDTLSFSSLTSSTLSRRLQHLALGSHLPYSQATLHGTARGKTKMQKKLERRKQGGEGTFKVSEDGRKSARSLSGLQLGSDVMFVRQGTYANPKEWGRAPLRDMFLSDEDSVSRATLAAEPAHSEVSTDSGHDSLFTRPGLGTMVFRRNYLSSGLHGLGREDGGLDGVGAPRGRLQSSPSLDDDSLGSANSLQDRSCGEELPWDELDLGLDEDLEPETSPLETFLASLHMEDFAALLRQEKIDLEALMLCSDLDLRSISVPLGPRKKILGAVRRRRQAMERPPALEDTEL
Assay: co-IP; co-immunoprecipitation; bait and source not told

- binding: binds
Substance: opsin (from UniProt P08100 1-348) (receptor)
